From paper PMC6731274 come the findings set out here.

No constants are given. Whether binding was seen depends on the method and setting. In cells and extracts the contact can be indirect. Some results given as binding are weak or reduced against the parent protein; the word gives no strength.

The target of the experiment is myc-tagged BARS expressed in HeLa cells (UniProt Q9Z2F5). Put plainly: co-IP; HeLa cells transfected with construct as indicated; immunoprecipitation for the myc tag, immunoblotting for ALDH7A1. (Immunoblotting shows a protein as a band on a membrane.)

B1: ALDH7A1 in HeLa cells (enzyme, UniProt P49419 27-539)
chain: AFMSTLLINQPQYAWLKELGLREENEGVYNGSWGGRGEVITTYCPANNEPIARVRQASVADYEETVKKAREAWKIWADIPAPKRGEIVRQIGDALREKIQVLGSLVSLEMGKILVEGVGEVQEYVDICDYAVGLSRMIGGPILPSERSGHALIEQWNPVGLVGIITAFNFPVAVYGWNNAIAMICGNVCLWKGAPTTSLISVAVTKIIAKVLEDNKLPGAICSLTCGGADIGTAMAKDERVNLLSFTGSTQVGKQVGLMVQERFGRSLLELGGNNAIIAFEDADLSLVVPSALFAAVGTAGQRCTTARRLFIHESIHDEVVNRLKKAYAQIRVGNPWDPNVLYGPLHTKQAVSMFLGAVEEAKKEGGTVVYGGKVMDRPGNYVEPTIVTGLGHDASIAHTETFAPILYVFKFKNEEEVFAWNNEVKQGLSSSIFTKDLGRIFRWLGPKGSDCGIVNVNIPTSGAEIGGAFGGEKHTGGGRESGSDAWKQYMRRSTCTINYSKDLPLAQGIKFQ
Consider B1, for which the binding result is given as “binds”.
